{"source": "paper PMC9875009", "biological_target": "Flag-H protein of CDV 851 strain (canine distemper virus, strain 851)", "test": "co-IP", "note": "No constants are given. Whether binding was seen depends on the method and setting. Binding seen in cells or lysates may run through a third protein. Binding can be weak; no strength is given.", "data": [{"binder": "dogSLAM receptor (receptor, UniProt Q95MM9 27-342) ESLMNCPEVPGKLGSSLQLSLASEGISKRMNKSIHILVTRAESPGNSIKKKIVSLDLPEGGSPRYLENGYKFHLENLTLRILESRRENEGWYFMTLEENFSVQHFCLQLKLYEQVSTPEIKVLNWTQENGNCSMMLACEVEKGDNVVYSWSEKLGIDPLIPANSSHLLHLSLGPQHVNNVYVCTVSNPVSNRSWSFNPWSKCRPESSVPRQWRLYAGLFLGGIVGVILIFEVVLLLLRRRGKTNHYKPTKEEKSLTIYAQVQKSGSTQKKPDPLPAEDPCTTIYVAATEPVPEPAPEPVQEPHSITVYASVTFPES", "values": [{"measurement": "binding", "result": "binds"}]}]}
